In PubChem BioAssay AID1487 (National Center for Advancing Translational Sciences (NCATS), 2009) one finds AC50 data, which are given here for 56 molecules.

The list shows a part of the results. Shown are side measurements of this screen, not its main read-out; they come without a call. Compounds called inactive in the main read-out are mostly missing here. Potencies come from curve fits of mixed quality, noted in brackets.

The assay can be described thus: qHTS Assay for Modulators of Lamin A Splicing. Particulars: HeLa LMNA splicing GFP/RFP minigene ratio, 48 h. A digest of the protocol:
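S3 HeLa stable clones carrying a lamin A-EGFP splicing minigene plus DsRed2 were seeded at 600 cells/well in Opti-MEM with 2% FBS, pin-dosed and incubated 48 h at 37°C. Acumen cytometry (488 nm) gave the GFP/RFP total-intensity ratio.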

Setting [1] is: measured here: RFP viability control channel.
Setting [2] is: measured here: GFP splicing reporter channel.

One may read the AC50 as the concentration at which the activity in the assay is half-maximal. Turning to `CCOC(=O)N1CCN(C(=O)CS(=O)(=O)c2cn(Cc3ccc(Cl)cc3)c3ccccc23)CC1`, under setting [1], the half-maximal activity concentration (AC50) is 4.47 µM [rising, full curve, poor fit]. In the case of `O=C(O)c1cn(-c2ccc(F)cc2)c2cc(N3CCNCC3)c(F)cc2c1=O`, the AC50 under setting [1] was 2.24 µM [rising, partial curve, poor fit]. For `COc1ccc(/C=C(/C(=O)c2ccc(Cl)cc2Cl)n2cncn2)cc1`, the AC50 under setting [2] is 35.5 µM [rising, single point]. Consider `CCOC(=O)c1[nH]c(C)c(C(=O)Nc2ccccc2F)c1C`, for which the AC50 under setting [1] was 5.62 µM [rising, full curve]. In the case of `CC1CCCC(NC(=O)COC(=O)Cc2ccc(Br)cc2)C1C` (stereo not drawn), under setting [1], the AC50 was 35.5 µM [rising, single point]. As to `CCOC(=O)N1CCC(n2c(SCC(=O)N3CCC(C)CC3)nc3ccccc3c2=O)CC1`, the concentration at half-maximal activity (AC50) under setting [2] was 3.55 µM [rising, partial curve]. With `CCOC(=O)c1cc(-c2ccccc2)n(CC(=O)NC(C)c2ccccc2)c1C` (stereo not drawn), the AC50 under setting [1] is 28.2 µM [falling, single point]. Consider `Cc1ccc(NC(=O)COC(=O)C2CC2C)c(S(=O)(=O)N2CCCCC2)c1` (stereo not drawn), for which the AC50 under setting [1] was 0.00891 µM [rising, full curve, poor fit]. As for `CN1CCN(NC(=O)c2cn(-c3ccccc3)nc2-c2cccc(Br)c2)CC1`, under setting [2], the AC50 is 2.24 µM [falling, full curve, poor fit].

As for `O=C(/C=C/c1ccc(F)cc1)N1CC[C@@]2(O)CCCC[C@H]2C1`, under setting [2], the concentration at half-maximal activity (AC50) is 0.447 µM [rising, full curve, poor fit]. Take `CS(=O)(=O)c1ncc(Cl)c(C(=O)Nc2ccc(N3CCOCC3)cc2)n1`: the AC50 under setting [2] is 31.6 µM [falling, single point] and the AC50 under setting [1] is 11.2 µM [rising, partial curve]. In the case of `O=C1N=c2ccccc2=C1c1[nH]c(=S)[nH]c1O`, the AC50 under setting [1] was 0.02 µM [rising, full curve, poor fit]. As to `CN1CCN(c2ccc(C(=O)c3ccc(F)cc3)cc2)CC1`, the AC50 under setting [1] is 0.0794 µM [rising, full curve, poor fit]. Consider `COc1ccc(NS(=O)(=O)c2cc(OC)ccc2NC(=O)c2cc(C)oc2C)cc1`, for which the AC50 under setting [1] is 22.4 µM [rising, single point].

`O=C(COC(=O)c1c2c(nc3ccccc13)CCCC2)c1cccs1`: the AC50 under setting [2] is 11.2 µM [falling, partial curve, poor fit] and the AC50 under setting [1] was 20 µM [falling, single point]. As for `COc1ccc(S(=O)(=O)N(Cc2ccccc2)Cc2nc3ccccc3c(=O)[nH]2)cc1`, the AC50 under setting [1] is 11.2 µM [rising, partial curve, poor fit]. `CCOc1cc(/C=C/C(=O)c2ccc(C)cc2)ccc1OCC(=O)N(C)C`: the half-maximal activity concentration (AC50) under setting [1] is 0.0447 µM [rising, full curve, poor fit]. With `COc1ccccc1CNC(=O)COC(=O)[C@H](Cc1c[nH]c2ccccc12)NC(=O)c1cccs1`, the AC50 under setting [2] is 0.0178 µM [falling, full curve, poor fit]. As to `CCOc1ccc(N2C(=O)CC(Sc3n[nH]c(-c4ccccc4)n3)C2=O)cc1` (stereo not drawn), the concentration at half-maximal activity (AC50) under setting [2] was 22.4 µM [falling, partial curve, poor fit] and the half-maximal activity concentration (AC50) under setting [1] is 11.2 µM [falling, partial curve].

On to `COCc1nnc(NC(=O)c2cccc(NC(=O)C(C)C)c2)s1`, for which the AC50 under setting [2] is 0.631 µM [rising, full curve, poor fit]. `COc1ccc(S(=O)(=O)Cc2ccc(C(=O)N3CCN(c4cccc(C)c4)C(C)C3)o2)cc1` (stereo not drawn): under setting [2], the concentration at half-maximal activity (AC50) is 10 µM [falling, single point]. With `CCc1n[nH]c(=S)n1/N=C/c1ccc(NC(C)=O)cc1`, the AC50 is, setting by setting: under setting [2], 31.6 µM [rising, single point]; under setting [1], 14.1 µM [rising, single point]. For `CN(C)CCCN(C(=O)c1ccc(Br)s1)c1nc2cc3c(cc2s1)OCO3`, the AC50 under setting [2] was 39.8 µM [falling, partial curve, poor fit]. Take `Cc1c(/C=N/NC(=O)CNc2ccccc2)c2ccccn2c1C(=O)c1ccncc1`: the AC50 under setting [1] was 17.8 µM [rising, partial curve, poor fit]. With `CCn1ccnc1CN(C)Cc1cn(-c2ccc(C)cc2)nc1-c1ccc(F)cc1`, the AC50 is, setting by setting: under setting [2], 11.2 µM [falling, partial curve]; under setting [1], 12.6 µM [falling, partial curve]. In the case of `O=C(NC1=NCCS1)C12CC3CC(CC(C3)C1)C2`, the AC50 under setting [1] is 17.8 µM [rising, partial curve, poor fit]. Regarding `CCOc1ccc(-n2c(O)c(/C=N/Nc3nnc(C)c(=O)[nH]3)c3ccccc3c2=O)cc1`, the AC50 under setting [1] was 22.4 µM [rising, partial curve, poor fit]. As for `Cc1ccc(-c2noc(CSc3nnc(Cc4ccccc4)n3-c3cccc(C)c3)n2)cc1`, the AC50 under setting [1] was 15.8 µM [rising, single point].

As for `Cc1ccccc1OCC(O)CN1CCC(C)CC1` (stereo not drawn), under setting [1], the AC50 is 0.0447 µM [falling, full curve, poor fit]. As for `CC(C)CC(=O)c1c[nH]c(C(=O)N2CCN(Cc3ccccc3)CC2)c1`, the AC50 under setting [2] was 0.126 µM [rising, full curve].

Turning to `CCOC(=O)Cc1c(C)c2ccc(N(CC)CC)cc2oc1=O`, the AC50 runs as follows: under setting [2], 14.1 µM [rising, single point]; under setting [1], 14.1 µM [rising, partial curve].

For `CC(=O)c1ccc(N/N=C(/C(N)=O)C2=NC(C)(C)Cc3ccccc32)cc1`, the AC50 under setting [1] is 7.08 µM [rising, partial curve].

With `COc1cc(NC(=O)c2cc(-c3cccnc3)nc3ccc(C)cc23)c(OC)cc1Cl`, the AC50 under setting [1] was 5.62 µM [rising, single point]. On to `CC(=O)c1ccc2noc(-c3ccccc3)c2c1`, for which, under setting [2], the AC50 was 0.02 µM [rising, full curve, poor fit].

Consider `COc1ccc2c(c1)N(C[C@@H](C)CN(C)C)c1ccccc1S2`, for which the AC50 by setting is: under setting [2], 12.6 µM [falling, single point]; under setting [1], 14.1 µM [falling, single point]. Take `CN=C1S/C(=C\c2cc(C)n(-c3ccccc3F)c2C)C(=O)N1C`: the AC50 reads like this: under setting [2], 14.1 µM [rising, single point]; under setting [1], 11.2 µM [rising, partial curve]. Take `CC(SCc1ccccc1)C(=O)N/N=C/c1cc2c(cc1Br)OCO2` (stereo not drawn): the AC50 is 20 µM [rising, single point] under setting [2] and 20 µM [rising, single point] under setting [1].

Take `O=S(=O)(c1ccc2c(c1)OCCO2)N(Cc1ccc(F)cc1)Cc1nnc(-c2cccs2)o1`: the AC50 by setting is: under setting [2], 11.2 µM [rising, partial curve]; under setting [1], 12.6 µM [rising, single point]. `O=c1oc2ccccc2c(O)c1CN1CCCCC1`: the AC50 reads like this: under setting [2], 11.2 µM [rising, partial curve]; under setting [1], 14.1 µM [rising, partial curve]. `c1ccc(-c2noc(CN3CCOCC3)n2)cc1`: the AC50 under setting [2] was 0.01 µM [rising, full curve, poor fit].

As for `O=C(Nc1cccc(F)c1)C1CCN(c2nnnn2-c2ccccc2)CC1`, the AC50 is, setting by setting: under setting [2], 35.5 µM [rising, single point]; under setting [1], 22.4 µM [rising, single point].

`Cc1cccc(OCC(=O)N/N=C\c2cn(C)c3ccccc23)c1`: the half-maximal activity concentration (AC50) is 12.6 µM [falling, partial curve] under setting [2] and 11.2 µM [falling, partial curve] under setting [1]. On to `CC(=O)N1CCCc2cc(S(=O)(=O)N3CCC(C(=O)NCc4cccc(C)c4)CC3)ccc21`, for which the AC50 under setting [2] is 7.08 µM [falling, partial curve]. Consider `O=C(N/N=C/c1ccc([N+](=O)[O-])cc1)c1ccc2nc[nH]c2c1`, for which the AC50 was 0.0631 µM [falling, full curve, poor fit] under setting [2] and 0.158 µM [falling, full curve, poor fit] under setting [1]. Consider `Cc1c(Cl)cccc1N/C(=N/S(=O)(=O)c1cccs1)c1ccccc1`, for which the half-maximal activity concentration (AC50) runs as follows: under setting [2], 0.355 µM [falling, full curve, poor fit]; under setting [1], 7.94 µM [falling, partial curve]. For `Cc1ccc(C(C(=O)NCc2ccco2)N(C(=O)Cc2cccs2)c2cccnc2)cc1` (stereo not drawn), the AC50 under setting [2] was 0.01 µM [rising, full curve, poor fit]. Regarding `CCCCn1c2ccc(F)cc2c2nnc(NN)nc21`, the AC50 under setting [1] is 25.1 µM [rising, single point].

With `O=C(NN1C(=O)c2ccccc2NC1c1ccccn1)c1ccccc1` (stereo not drawn), under setting [2], the AC50 was 0.112 µM [falling, full curve, poor fit]. Regarding `CNc1c([N+](=O)[O-])cnn1-c1ccc(F)cc1`, the AC50 under setting [1] is 5.01 µM [falling, single point]. On to `COCCn1c(N)c(N(Cc2ccccc2)C(=O)Cc2ccccc2F)c(=O)[nH]c1=O`, for which, under setting [2], the AC50 is 0.0224 µM [rising, full curve, poor fit]. `CC(C)C(=O)Nc1nc2cc3c(cc2s1)OCO3`: the AC50 under setting [1] is 14.1 µM [rising, partial curve]. For `Cc1ccc2c(CC(=O)Nc3ccc(N4CCN(C)CC4)cc3C)coc2c1`, the AC50 was 1.12 µM [rising, single point] under setting [2] and 11.2 µM [rising, single point] under setting [1]. Regarding `N#Cc1ccc(C(c2ccc(C#N)cc2)n2cncn2)cc1`, the AC50 under setting [2] was 0.00251 µM [falling, full curve, poor fit].

As to `O=c1c(-c2cc(F)cc(F)c2)nc2cncnc2n1Cc1ccccc1Cl`, the AC50 under setting [2] was 10 µM [falling, partial curve]. On the same count and under the same terms, the value for `CSCCC(NC(=O)c1ccc(Br)cc1)C(=O)O` (stereo not drawn) was 6.31 µM [falling, partial curve, poor fit]. As for `COc1cc(NS(=O)(=O)c2ccc3[nH]c4c(c3c2)CCCCCC4)cc(OC)c1`, the AC50 under setting [2] was 22.4 µM [falling, partial curve] and the concentration at half-maximal activity (AC50) under setting [1] is 22.4 µM [falling, partial curve].
